No constants are given. Whether binding was seen depends on the method and setting. Some entries that bind do so weakly or less than the wild type. Where a sequence is shown, tags or fusion partners need not be part of it.

Sequences of proteins named here, by UniProt entry; tags and fusion partners are left off. Residues count along the entry.
UniProt P25942, residues 21-193: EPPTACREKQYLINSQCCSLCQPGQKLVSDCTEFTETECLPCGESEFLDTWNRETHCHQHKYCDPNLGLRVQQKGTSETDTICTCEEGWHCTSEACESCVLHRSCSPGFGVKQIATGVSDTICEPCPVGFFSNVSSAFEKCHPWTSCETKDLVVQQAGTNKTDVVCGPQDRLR

The assay deals with CD40-Fc (immobilized recombinant human CD40) (human) (UniProt P25942). Description: ELISA, CD40-Fc coated, HeLa supernatant, detection with non-competitive anti-CD40L.

B1: construct encoded by pTG19965: heterologous signal peptide upstream of human SPD (A21 to G257)-CD40L (N119 to L261), FLAG tag in C-terminus (ligand)
chain: AEMKTYSHRTMPSACTLVMCSSVESGLPGRDGRDGREGPRGEKGDPGLPGAAGQAGMPGQAGPVGPKGDNGSVGEPGPKGDTGPSGPPGPPGVPGPAGREGPLGKQGNIGPQGKPGPKGEAGPKGEVGAPGMQGSAGARGLAGPKGERGVPGERGVPGNTGAAGSAGAMGPQGSPGARGPPGLKGDKGIPGDKGAKGESGLPDVASLRQQVEALQGQVQHLQAAFSQYKKVENPQIAAHVISEASSKTTSVLQWAEKGYYTMSNNLVTLENGKQLTVKRQGLYYIYAQVTFCSNREASSQAPFIASLCLKSPGRFERILLRAANTHSSAKPCGQQSIHLGGVFELQPGASVFVNVTDPSQVSHGTGFTSFGLLKL
Turning to B1, the binding entry is given as “binds”.

The values above are taken from patent US20260015405A1.
